Further values from the same series stand in other lists.
Tests used:
Assay type in all cases: cell-based
Conditions in all cases: U-87MG ATCC
[1] = Inhibition of RTK/PI3K/AKT/mTOR signaling in human U87 cells assessed as down regulation of CHMP2B gene expression at cytotoxic IC50 measured after 48 hrs relative to control
[2] = Inhibition of RTK/PI3K/AKT/mTOR signaling in human U87 cells assessed as up regulation of CASC8 gene expression at cytotoxic IC50 measured after 48 hrs relative to control
[3] = Inhibition of RTK/PI3K/AKT/mTOR signaling in human U87 cells assessed as down regulation of WDR25 gene expression at cytotoxic IC50 measured after 48 hrs relative to control
[4] = Inhibition of RTK/PI3K/AKT/mTOR signaling in human U87 cells assessed as up regulation of inositol polyphosphate-4-phosphatase type II B gene expression at cytotoxic IC50 measured after 48 hrs relative to control
[5] = Inhibition of RTK/PI3K/AKT/mTOR signaling in human U87 cells assessed as up regulation of UDP-glucose glycoprotein glucosyltransferase 2 gene expression at cytotoxic IC50 measured after 48 hrs relative to control
[6] = Inhibition of RTK/PI3K/AKT/mTOR signaling in human U87 cells assessed as down regulation of LAMA3 gene expression at cytotoxic IC50 measured after 48 hrs relative to control
[7] = Inhibition of RTK/PI3K/AKT/mTOR signaling in human U87 cells assessed as down regulation of TCP1 gene expression at cytotoxic IC50 measured after 48 hrs relative to control
[8] = Inhibition of RTK/PI3K/AKT/mTOR signaling in human U87 cells assessed as down regulation of TUBA1A gene expression at cytotoxic IC50 measured after 48 hrs relative to control
[9] = Inhibition of RTK/PI3K/AKT/mTOR signaling in human U87 cells assessed as up regulation of GTF2I repeat domain containing 1 gene expression at cytotoxic IC50 measured after 48 hrs relative to control
[10] = Inhibition of RTK/PI3K/AKT/mTOR signaling in human U87 cells assessed as down regulation of CRY2 gene expression at cytotoxic IC50 measured after 48 hrs relative to control
[11] = Inhibition of RTK/PI3K/AKT/mTOR signaling in human U87 cells assessed as down regulation of RFC2 gene expression at cytotoxic IC50 measured after 48 hrs relative to control
[12] = Inhibition of RTK/PI3K/AKT/mTOR signaling in human U87 cells assessed as down regulation of ESCO2 gene expression at cytotoxic IC50 measured after 48 hrs relative to control
[13] = Inhibition of RTK/PI3K/AKT/mTOR signaling in human U87 cells assessed as down regulation of ELOVL5 gene expression at cytotoxic IC50 measured after 48 hrs relative to control
[14] = Inhibition of RTK/PI3K/AKT/mTOR signaling in human U87 cells assessed as up regulation of tigger transposable element derived 5 gene expression at cytotoxic IC50 measured after 48 hrs relative to control
[15] = Inhibition of RTK/PI3K/AKT/mTOR signaling in human U87 cells assessed as up regulation of SMPD3 gene expression at cytotoxic IC50 measured after 48 hrs relative to control
[16] = Inhibition of RTK/PI3K/AKT/mTOR signaling in human U87 cells assessed as up regulation of FERM domain containing 5 gene expression at cytotoxic IC50 measured after 48 hrs relative to control
[17] = Inhibition of RTK/PI3K/AKT/mTOR signaling in human U87 cells assessed as down regulation of TNFAIP1 gene expression at cytotoxic IC50 measured after 48 hrs relative to control
[18] = Inhibition of RTK/PI3K/AKT/mTOR signaling in human U87 cells assessed as up regulation of family with sequence similarity 117 member B gene expression at cytotoxic IC50 measured after 48 hrs relative to control
[19] = Inhibition of RTK/PI3K/AKT/mTOR signaling in human U87 cells assessed as down regulation of ENY2 gene expression at cytotoxic IC50 measured after 48 hrs relative to control
[20] = Inhibition of RTK/PI3K/AKT/mTOR signaling in human U87 cells assessed as down regulation of GMNN gene expression at cytotoxic IC50 measured after 48 hrs relative to control
[21] = Inhibition of RTK/PI3K/AKT/mTOR signaling in human U87 cells assessed as up regulation of La ribonucleoprotein domain family member 1 gene expression at cytotoxic IC50 measured after 48 hrs relative to control
[22] = Inhibition of RTK/PI3K/AKT/mTOR signaling in human U87 cells assessed as up regulation of transmembrane protein 131 gene expression at cytotoxic IC50 measured after 48 hrs relative to control
[23] = Inhibition of RTK/PI3K/AKT/mTOR signaling in human U87 cells assessed as down regulation of MCM8 gene expression at cytotoxic IC50 measured after 48 hrs relative to control
[24] = Inhibition of RTK/PI3K/AKT/mTOR signaling in human U87 cells assessed as up regulation of ZNF503 antisense RNA 1 gene expression at cytotoxic IC50 measured after 48 hrs relative to control
[25] = Inhibition of RTK/PI3K/AKT/mTOR signaling in human U87 cells assessed as down regulation of EXT1 gene expression at cytotoxic IC50 measured after 48 hrs relative to control
[26] = Inhibition of RTK/PI3K/AKT/mTOR signaling in human U87 cells assessed as down regulation of DNAJB2 gene expression at cytotoxic IC50 measured after 48 hrs relative to control
[27] = Inhibition of RTK/PI3K/AKT/mTOR signaling in human U87 cells assessed as down regulation of TMEM117 gene expression at cytotoxic IC50 measured after 48 hrs relative to control
[28] = Inhibition of RTK/PI3K/AKT/mTOR signaling in human U87 cells assessed as down regulation of HBS1L gene expression at cytotoxic IC50 measured after 48 hrs relative to control
[29] = Inhibition of RTK/PI3K/AKT/mTOR signaling in human U87 cells assessed as down regulation of EIF4E3 gene expression at cytotoxic IC50 measured after 48 hrs relative to control
[30] = Inhibition of RTK/PI3K/AKT/mTOR signaling in human U87 cells assessed as up regulation of NGEF gene expression at cytotoxic IC50 measured after 48 hrs relative to control
[31] = Inhibition of RTK/PI3K/AKT/mTOR signaling in human U87 cells assessed as up regulation of runt related transcription factor 3 gene expression at cytotoxic IC50 measured after 48 hrs relative to control
[32] = Inhibition of RTK/PI3K/AKT/mTOR signaling in human U87 cells assessed as down regulation of HNRNPM gene expression at cytotoxic IC50 measured after 48 hrs relative to control

What does the source list for `CC(=O)C(=NNc1ccccc1C#N)C(C)=O`?
log2FC [1]: -0.503; log2FC [2]: 1.7; log2FC [3]: -1.26; log2FC [4]: 1.29; log2FC [5]: 1.05; log2FC [6]: -0.893; log2FC [7]: -0.602; log2FC [8]: -0.812; log2FC [9]: 0.66; log2FC [10]: -1.3; log2FC [11]: -1.11; log2FC [12]: -1.55; log2FC [13]: -0.454; log2FC [14]: 1.39; log2FC [15]: 3.09; log2FC [16]: 0.759; log2FC [17]: -1.07; log2FC [18]: 0.896; log2FC [19]: -0.529; log2FC [20]: -1.8; log2FC [21]: 0.858; log2FC [22]: 0.942; log2FC [23]: -1.3; log2FC [24]: 1.56; log2FC [25]: -1.45; log2FC [26]: -1.03; log2FC [27]: -1.9; log2FC [28]: -0.538; log2FC [29]: -1.02; log2FC [30]: 2.03; log2FC [31]: 0.905; log2FC [32]: -0.344

Source: ChEMBL document CHEMBL4316593 (Eur J Med Chem, 2019)
